Literature values in patent US20240239766A1, “3-AMINO PIPERIDYL SODIUM CHANNEL INHIBITORS” (Genentech, Inc., priority 2021, published 2024).

Conditions: administered topically (Lidoderm patch); cited from earlier work

CCN(CC)CC(=O)Nc1c(C)cccc1C [lidocaine]
plasma concentrations: about 1 μM
